# Measurements reported in PubChem BioAssay AID493014 (National Center for Advancing Translational Sciences (NCATS), 2011).
# Values joined by “and” are separate entries in the source; they are usually repeats but may differ in a detail not shown here. Equal entries are not always repeated. The list shows a part of the results. Further columns of the screen follow, without active or inactive calls. The list favours compounds with an active or inconclusive main result. The note in brackets gives the kind of curve behind each potency; many fits are weak.
# Test: qHTS Assay to Find Inhibitors of Chronic Active B-Cell Receptor Signaling
# Conditions: ABC-DLBCL IkBa-CBG/CBR reporter, luminescence ratio (green luciferase fused to IkBa over red control in TMD8 lymphoma cells), 4 h
# Procedure, shortened: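 TMD8 ABC-DLBCL cells carrying doxycycline-inducible green luciferase fused to IkappaBalpha plus unfused red luciferase were exposed to compounds (up to 46 uM) for 4 hrs at 37C. Activity came from the overlap-corrected green/red luminescence ratio.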
# [1] = measured here: CBR red luminescence, cell number
# [2] = measured here: IkBa-CBG green luminescence
Compound,AC50 [1],AC50 [2]
O=C(COC(=O)CC12CC3CC(CC(Br)(C3)C1)C2)NC(=O)NCc1ccco1,"0.501 µM [rising, full curve, poor fit]",–
CCOc1ccc(CCNC(=O)CN2C(=O)NC(CCSC)C2=O)cc1OCC (stereo not given),"7.94 µM [rising, partial curve, poor fit]",–
Cc1nnc(N/N=C/C(C)c2ccccc2)[nH]c1=O (stereo not given),"1.41 µM [rising, partial curve, poor fit]",–
Cc1scc(C(=O)N/N=C/c2ccc([N+](=O)[O-])o2)c1C,"0.562 µM [falling, full curve, poor fit]",–
CCCc1nc2c(=O)n(C)c(=O)nc-2n(C)n1,"10 µM [falling, partial curve, poor fit]",–
O=C(c1ccco1)N1CCN(C(=O)c2ccc(COc3ccc4c(c3)CCC4)o2)CC1,"10 µM [falling, partial curve, poor fit]",–
CCOC(=O)CSc1[nH]c(=O)cc(C)c1C#N,"0.517 µM [falling, full curve, poor fit]",–
O=C(Nc1ccc(Br)c(C(F)(F)F)c1)c1ccccc1,–,"29.1 µM [rising, partial curve, poor fit]"
Clc1ccc(/C=N/Nc2ncnc3ccccc23)cc1Cl,"14.1 µM [falling, partial curve]",–
CCS(=O)(=O)c1ccc2c(c1)NC(=O)C(CCCl)O2 (stereo not given),"35.5 µM [rising, single point]",–
CC1=NN(C(=O)c2csc(C(C)C)c2)C(O)(C(F)(F)F)C1 (stereo not given),"6.51 µM [falling, single point]",–
COc1ccc(C(=O)NC(C(=O)N2CCc3ccccc32)C(C)C)cc1 (stereo not given),"3.66 µM [rising, full curve]",–
O=c1[nH]c(CN2CCN(S(=O)(=O)c3ccc(Cl)cc3)CC2)nc2cc(Cl)ccc12,"16.4 µM [rising, partial curve, poor fit]",–
Cc1ccc2oc(-c3cccc(NC(=O)c4cc(-n5cnnc5)ccc4Cl)c3)nc2c1,"2.91 µM [falling, full curve]",–
O=C(O)CCCC(=O)Nc1cccc(C(=O)Nc2ccccc2C(=O)O)c1,"12.6 µM [falling, partial curve]",–
C=C(C)CSc1nc2nc(C)cc(C)n2n1,"11.6 µM [rising, partial curve, poor fit]",–
CCc1ccc(NC(=O)CCn2nc(C)c(S(=O)(=O)N3CCCCC3)c2C)cc1,"17.8 µM [falling, single point]",–
CCCOC(=O)CSC1=C(C#N)C(c2ccccc2Cl)CC(=O)N1 (stereo not given),"6.51 µM [rising, single point]",–
O=C(CSc1nnc(-c2ccc(F)cc2)o1)c1ccc2c(c1)OCCO2,"0.731 µM [falling, partial curve, poor fit]",–
Cc1ccc(N=C2NC(=O)/C(=C/c3cccn3C)S2)c(C)c1,"7.94 µM [falling, partial curve, poor fit]",–
O=C(N/N=C/c1ccccn1)c1cccs1,"20 µM [falling, partial curve, poor fit]",–

# In a second layout: entries from further up.
Compound | AC50 [1] | AC50 [2]
Cc1ccc2oc(-c3cccc(NC(=O)c4cc(-n5cnnc5)ccc4Cl)c3)nc2c1 | 2.91 µM [falling, full curve] | –
O=C(O)CCCC(=O)Nc1cccc(C(=O)Nc2ccccc2C(=O)O)c1 | 12.6 µM [falling, partial curve] | –
C=C(C)CSc1nc2nc(C)cc(C)n2n1 | 11.6 µM [rising, partial curve, poor fit] | –
CCc1ccc(NC(=O)CCn2nc(C)c(S(=O)(=O)N3CCCCC3)c2C)cc1 | 17.8 µM [falling, single point] | –
CCCOC(=O)CSC1=C(C#N)C(c2ccccc2Cl)CC(=O)N1 (stereo not given) | 6.51 µM [rising, single point] | –

# Further entries follow:

Compound,AC50 [1],AC50 [2]
CCn1c2ccccc2c2cc(NC(=O)COC(=O)Cc3cn4ccsc4n3)ccc21,"22.4 µM [rising, single point]",–
O=C(Nc1nnc(SCc2ccccc2)s1)c1cc2c(s1)CCCC2,"2.06 µM [rising, full curve, poor fit]",–
N#C/C(=C\c1cn(Cc2ccc(F)cc2)c2ccccc12)C(=O)NCc1ccco1,"6.51 µM [rising, single point]","6.51 µM [falling, partial curve, poor fit]"
CCOc1ccc(C(C)(C)C)cc1S(=O)(=O)N1CC(C)OC(C)C1 (stereo not given),"0.00461 µM [rising, full curve, poor fit]",–
Cc1cc(C)n(-c2nc3ccccc3nc2N2CCC(C)CC2)n1,"23.1 µM [rising, partial curve, poor fit]",–
CSc1nnc(C)c(=O)n1COC(=O)/C=C/c1ccc2c(c1)OCO2,"3.16 µM [falling, single point]",–
CCCCCn1c(=O)c(-c2nc3ccccc3[nH]2)c(O)c2ccccc21,"3.55 µM [rising, partial curve, poor fit]",–
COc1ccc(C)cc1-n1nnnc1SCc1nc2ccccc2c(=O)[nH]1,"6.31 µM [rising, single point]",–
COC(=O)C1=C(C)NC(C)=C(C(=O)OC)C1C(=O)OC(C)C(=O)c1ccccc1 (stereo not given),"20 µM [rising, partial curve, poor fit] and 10.3 µM [rising, partial curve, poor fit]",–
COc1cccc(/C=C2\SC(=S)N(CCC(=O)Nc3ccc(O)cc3)C2=O)c1,"10 µM [falling, partial curve]",–
Oc1cccc2cnccc12,"0.355 µM [falling, full curve, poor fit]",–
COc1ccccc1Nc1nnc(SCc2nnc(-c3cc(OC)c(OC)c(OC)c3)o2)s1,"1.84 µM [rising, partial curve, poor fit]",–
COc1ccc(NC(=O)CN(C)S(=O)(=O)c2ccc(Cl)cc2)cc1Cl,"0.562 µM [falling, partial curve, poor fit]",–
Cc1ccc(C(=O)N2CC(=O)Nc3ccc(C)cc3C2c2ccccc2)cc1 (stereo not given),"35.5 µM [falling, single point]",–
CCOC(=O)c1ccc(-c2ccc3c(c2)CCC3)nc1C,"12.6 µM [rising, partial curve, poor fit]",–
O=C(NC1=NCCS1)c1ccc(Br)s1,"0.82 µM [rising, partial curve, poor fit]",–
Cc1ccc2nc(-c3ccc(SCC(=O)Nc4nnc(C)s4)nc3)[nH]c2c1,"4.11 µM [falling, full curve, poor fit]","23.1 µM [rising, partial curve, poor fit]"
C=CCn1cccc(C(=O)Nc2cc(OC)ccc2OC)c1=O,"11.2 µM [falling, partial curve, poor fit]",–
Cc1ccccc1C(=O)NNS(=O)(=O)c1cccc([N+](=O)[O-])c1,"15.8 µM [falling, partial curve, poor fit]",–
Cc1cccc(Nc2ncnc3onc(-c4ccc(F)cc4)c23)c1C,"35.5 µM [rising, single point]",–
S=C(NCCc1c[nH]c2ccccc12)NC1CCCC1,"35.5 µM [falling, single point]",–

Compound,AC50 [1],AC50 [2]
CC(C)CC(N=Cc1c(O)c2ccccc2oc1=O)C(=O)O (stereo not given),"3.55 µM [falling, full curve]",–
O=C1c2ccccc2N2C(=O)c3ccccc3C2N1O (stereo not given),"11.2 µM [falling, partial curve, poor fit]",–
CCCCN(C(=O)Cc1coc2cc(C)c(C)cc12)c1c(N)n(Cc2ccccc2)c(=O)[nH]c1=O,"0.58 µM [rising, full curve]",–
O=S(=O)(c1ccc(Br)cc1)N1CCN(c2ccc3nnc(-c4ccccc4)n3n2)CC1,"29.1 µM [rising, single point]",–
Cc1cc(C(=O)NC(=S)Nc2cccc(NC(=O)C(C)C)c2)ccc1[N+](=O)[O-],"1.46 µM [rising, full curve, poor fit]",–
C=CCSc1nc2c(c(C3CC=CCC3)c1C#N)CCC2 (stereo not given),"16.4 µM [rising, partial curve]",–
CC(C)n1cc(C(=O)N2CCCC(N3CCN(c4cccc(Cl)c4)CC3)C2)cn1 (stereo not given),"3.16 µM [falling, partial curve, poor fit]",–
C/C(=C\c1ccccc1)CN1CCN(Cc2ccc(C)o2)C(CCO)C1 (stereo not given),"35.5 µM [rising, single point]",–
O=C(C1CCCN(c2ncnc3c2nc2n3CCCCC2)C1)N1CCN(c2ccccc2F)CC1 (stereo not given),"35.5 µM [falling, single point]",–
O=C(CN1CCOCC1)Nc1ccccc1C(=O)Nc1ccccc1,"25.1 µM [rising, single point]",–
COc1ccccc1C(=O)NCC(=O)NC1CCCc2ccccc21 (stereo not given),"10 µM [falling, partial curve, poor fit]",–
CN(c1ccc(C(=O)N2CCN(Cc3ccc4c(c3)OCO4)CC2)cc1)S(=O)(=O)c1ccccc1,"29.1 µM [falling, single point]",–
CCC(CO)Nc1nc2ccc(Cl)cc2c2ccccc12 (stereo not given),"25.1 µM [falling, single point]",–
O=C(Cn1cnc([N+](=O)[O-])c1)Nc1ccc(F)c(Cl)c1,"2 µM [falling, full curve]",–
COC(=O)c1ccc(NC(=O)c2cccc(C)c2)cc1,"15.8 µM [falling, partial curve, poor fit]",–
O=[N+]([O-])c1cc(F)c(N2CCCCC2)cc1N1CCOCC1,"12.6 µM [rising, partial curve, poor fit]",–
COc1cc(C(F)(F)F)ccc1C(=O)NCCc1ccco1,"7.08 µM [rising, full curve, poor fit]",–
CC(C)c1nc(N2CCN(C(=O)c3ccco3)CC2)c(C#N)c2c1COC(C)(C)C2,"2.82 µM [falling, full curve, poor fit]",–
CCOc1ccc(Oc2c(/C=N/NC(=O)COc3ccccc3OC)c(C)nn2-c2ccccc2)cc1,"0.92 µM [rising, partial curve]",–
Cc1cc(/C=N/n2cnnc2)c(O)c([N+](=O)[O-])c1,"29.1 µM [rising, single point]",–
O=C(Nc1cccc(NC(=O)c2cccs2)c1)c1ccc2c(c1)OCO2,"6.31 µM [falling, partial curve, poor fit]",–
